Among the data in paper PMC10716376, “The assembly of the Mitochondrial Complex I Assembly complex uncovers a redox pathway coordination” (Nature Communications, 2023) are binding values, retold here.

In this assay the target is T1, VLCADWT (very long chain acyl-CoA dehydrogenase, res. 72-655) (human) (UniProt P49748).
T1 sequence: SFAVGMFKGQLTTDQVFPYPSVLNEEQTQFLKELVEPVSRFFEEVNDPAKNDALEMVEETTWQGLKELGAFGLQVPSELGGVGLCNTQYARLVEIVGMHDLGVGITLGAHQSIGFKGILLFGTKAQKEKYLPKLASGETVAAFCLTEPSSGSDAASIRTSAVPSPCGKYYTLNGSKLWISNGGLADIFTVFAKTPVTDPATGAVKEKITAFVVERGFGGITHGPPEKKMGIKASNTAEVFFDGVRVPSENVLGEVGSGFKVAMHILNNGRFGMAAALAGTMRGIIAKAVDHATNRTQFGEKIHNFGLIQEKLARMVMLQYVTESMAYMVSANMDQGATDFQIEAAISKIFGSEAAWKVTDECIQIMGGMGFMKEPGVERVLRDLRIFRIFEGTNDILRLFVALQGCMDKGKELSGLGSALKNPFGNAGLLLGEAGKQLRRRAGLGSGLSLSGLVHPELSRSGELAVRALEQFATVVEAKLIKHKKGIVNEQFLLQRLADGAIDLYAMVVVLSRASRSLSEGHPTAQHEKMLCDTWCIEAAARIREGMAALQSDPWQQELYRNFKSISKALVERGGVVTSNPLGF
Kind of assay: mass photometry; ACAD9 (or VLCAD) at 20-50 nM in 25 mM HEPES pH 7.5, 250 mM NaCl, or diluted in 4.8 uM ECSIT solution for complex formation; both purified.

These are yes or no findings as the source states them, for the method shown.

B1: ECSIT_(CTER) (residues 221-431) (domain or fragment, human, UniProt Q9BQ95 221-431, looked up)
chain: QDPVELAMFGLRHMEPDLSARVTIYQVPLPKDSTGAADPPQPHIVGIQSPDQQAALARHNPARPVFVEGPFSLWLRNKCVYYHILRADLLPPEEREVEETPEEWNLYYPMQLDLEYVRSGWDNYEFDINEVEEGPVFAMCMAGAHDQATMAKWIQGLQETNPTLAQIPVVFRLAGSTRELQTSSAGLEEPPLPEDHQEEDDNLQRQQQGQS
notes: human ECSIT, residues 221-431; E. coli codon-optimised synthetic gene; Only residues 320-334 are modelled in the cryo-EM map; Plasmid details are in Supplementary Data 1; also called C-terminal ECSIT; source: E. coli BL21 Star (DE3), purified (HisTrap, SEC)
B1: the binding entry is on record as “no binding (tested: 4.8 uM ECSIT solution)”.
